These are yes or no findings as the source states them, for the method shown. In cells and extracts the contact can be indirect. These calls come from enrichment with a bait or labelling near it, and not all partners need be listed. For some of these results: No binding means not detected with the bait. Tags and fused reporters may be left off the sequences shown. One block for each molecule: values may come before it.
How the values were obtained:
[1] = molecular target: T1, 3×Flag–NOL9 (human (endogenous in HEK 293FT)) (UniProt Q5SY16); assay: affinity purification with mass spectrometry; Flag immunoprecipitation from the DNase I-digested chromatin fraction of endogenously tagged HEK 293FT cells (IP buffer 250 mM NaCl, 1% Triton X-100), tandem-mass-tag mass spectrometry against untagged cells, two independent experiments
T1 sequence: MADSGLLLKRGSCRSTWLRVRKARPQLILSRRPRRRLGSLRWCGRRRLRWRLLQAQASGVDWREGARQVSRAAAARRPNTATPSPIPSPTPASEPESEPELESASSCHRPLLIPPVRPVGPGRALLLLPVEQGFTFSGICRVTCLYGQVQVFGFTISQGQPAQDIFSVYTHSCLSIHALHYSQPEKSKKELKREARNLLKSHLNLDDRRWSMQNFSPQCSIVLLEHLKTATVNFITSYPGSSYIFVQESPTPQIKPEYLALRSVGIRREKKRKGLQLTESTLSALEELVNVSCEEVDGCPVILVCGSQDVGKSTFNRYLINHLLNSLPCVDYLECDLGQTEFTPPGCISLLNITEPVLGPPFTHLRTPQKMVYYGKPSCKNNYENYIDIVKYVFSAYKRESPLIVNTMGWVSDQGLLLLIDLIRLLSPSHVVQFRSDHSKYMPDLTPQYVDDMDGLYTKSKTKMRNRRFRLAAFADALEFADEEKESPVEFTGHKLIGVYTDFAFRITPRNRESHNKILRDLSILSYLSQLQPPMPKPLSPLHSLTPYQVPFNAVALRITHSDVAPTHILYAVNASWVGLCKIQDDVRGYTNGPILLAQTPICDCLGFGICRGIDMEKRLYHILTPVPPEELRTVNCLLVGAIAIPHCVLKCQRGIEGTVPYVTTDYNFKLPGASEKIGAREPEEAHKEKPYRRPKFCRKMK

Protein sequences, listed by entry. Tags and fused reporters are not part of them.
UniProt P83916: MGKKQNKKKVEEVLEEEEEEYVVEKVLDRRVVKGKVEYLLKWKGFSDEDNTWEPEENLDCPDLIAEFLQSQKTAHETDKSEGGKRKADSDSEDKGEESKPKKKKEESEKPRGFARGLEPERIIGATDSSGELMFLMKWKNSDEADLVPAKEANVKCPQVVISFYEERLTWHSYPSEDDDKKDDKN
UniProt Q13185: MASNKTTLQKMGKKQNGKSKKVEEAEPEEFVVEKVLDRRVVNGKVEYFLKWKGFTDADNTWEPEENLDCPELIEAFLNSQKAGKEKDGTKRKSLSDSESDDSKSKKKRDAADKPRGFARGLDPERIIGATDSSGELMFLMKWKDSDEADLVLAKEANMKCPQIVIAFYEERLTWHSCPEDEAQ
UniProt Q969R5: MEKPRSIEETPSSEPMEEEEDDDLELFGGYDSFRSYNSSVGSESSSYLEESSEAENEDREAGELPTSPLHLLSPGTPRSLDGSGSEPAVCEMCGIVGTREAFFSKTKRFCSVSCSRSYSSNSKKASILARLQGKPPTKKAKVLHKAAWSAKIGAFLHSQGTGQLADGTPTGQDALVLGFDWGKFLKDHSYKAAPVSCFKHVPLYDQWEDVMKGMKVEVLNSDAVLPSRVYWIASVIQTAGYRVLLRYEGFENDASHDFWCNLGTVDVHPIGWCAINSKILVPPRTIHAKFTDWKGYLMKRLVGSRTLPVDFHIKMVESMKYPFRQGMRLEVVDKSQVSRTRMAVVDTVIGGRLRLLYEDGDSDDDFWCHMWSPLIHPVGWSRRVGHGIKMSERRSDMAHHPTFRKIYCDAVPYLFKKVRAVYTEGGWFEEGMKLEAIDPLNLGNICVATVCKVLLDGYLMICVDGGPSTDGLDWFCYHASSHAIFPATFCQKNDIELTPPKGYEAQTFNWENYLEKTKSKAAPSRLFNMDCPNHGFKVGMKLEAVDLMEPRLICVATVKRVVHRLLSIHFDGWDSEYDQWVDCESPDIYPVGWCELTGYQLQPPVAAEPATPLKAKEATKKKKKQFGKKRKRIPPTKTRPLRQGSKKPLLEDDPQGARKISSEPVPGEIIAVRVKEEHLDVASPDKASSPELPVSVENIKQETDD
UniProt Q9H4L4: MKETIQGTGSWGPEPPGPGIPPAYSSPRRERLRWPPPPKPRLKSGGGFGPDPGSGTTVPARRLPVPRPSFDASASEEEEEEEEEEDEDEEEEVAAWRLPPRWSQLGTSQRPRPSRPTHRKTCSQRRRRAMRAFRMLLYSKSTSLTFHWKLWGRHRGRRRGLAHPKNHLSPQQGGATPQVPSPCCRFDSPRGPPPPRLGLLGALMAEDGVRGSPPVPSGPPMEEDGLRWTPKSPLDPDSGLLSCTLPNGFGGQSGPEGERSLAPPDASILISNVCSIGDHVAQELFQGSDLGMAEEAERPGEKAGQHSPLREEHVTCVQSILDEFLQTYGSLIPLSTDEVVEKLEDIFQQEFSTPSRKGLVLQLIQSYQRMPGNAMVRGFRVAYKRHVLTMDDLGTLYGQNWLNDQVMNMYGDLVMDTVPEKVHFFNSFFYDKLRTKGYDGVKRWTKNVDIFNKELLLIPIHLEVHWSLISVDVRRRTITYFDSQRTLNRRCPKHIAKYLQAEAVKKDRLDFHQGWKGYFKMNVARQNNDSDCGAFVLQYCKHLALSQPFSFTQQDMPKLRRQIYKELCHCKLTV
UniProt Q93009: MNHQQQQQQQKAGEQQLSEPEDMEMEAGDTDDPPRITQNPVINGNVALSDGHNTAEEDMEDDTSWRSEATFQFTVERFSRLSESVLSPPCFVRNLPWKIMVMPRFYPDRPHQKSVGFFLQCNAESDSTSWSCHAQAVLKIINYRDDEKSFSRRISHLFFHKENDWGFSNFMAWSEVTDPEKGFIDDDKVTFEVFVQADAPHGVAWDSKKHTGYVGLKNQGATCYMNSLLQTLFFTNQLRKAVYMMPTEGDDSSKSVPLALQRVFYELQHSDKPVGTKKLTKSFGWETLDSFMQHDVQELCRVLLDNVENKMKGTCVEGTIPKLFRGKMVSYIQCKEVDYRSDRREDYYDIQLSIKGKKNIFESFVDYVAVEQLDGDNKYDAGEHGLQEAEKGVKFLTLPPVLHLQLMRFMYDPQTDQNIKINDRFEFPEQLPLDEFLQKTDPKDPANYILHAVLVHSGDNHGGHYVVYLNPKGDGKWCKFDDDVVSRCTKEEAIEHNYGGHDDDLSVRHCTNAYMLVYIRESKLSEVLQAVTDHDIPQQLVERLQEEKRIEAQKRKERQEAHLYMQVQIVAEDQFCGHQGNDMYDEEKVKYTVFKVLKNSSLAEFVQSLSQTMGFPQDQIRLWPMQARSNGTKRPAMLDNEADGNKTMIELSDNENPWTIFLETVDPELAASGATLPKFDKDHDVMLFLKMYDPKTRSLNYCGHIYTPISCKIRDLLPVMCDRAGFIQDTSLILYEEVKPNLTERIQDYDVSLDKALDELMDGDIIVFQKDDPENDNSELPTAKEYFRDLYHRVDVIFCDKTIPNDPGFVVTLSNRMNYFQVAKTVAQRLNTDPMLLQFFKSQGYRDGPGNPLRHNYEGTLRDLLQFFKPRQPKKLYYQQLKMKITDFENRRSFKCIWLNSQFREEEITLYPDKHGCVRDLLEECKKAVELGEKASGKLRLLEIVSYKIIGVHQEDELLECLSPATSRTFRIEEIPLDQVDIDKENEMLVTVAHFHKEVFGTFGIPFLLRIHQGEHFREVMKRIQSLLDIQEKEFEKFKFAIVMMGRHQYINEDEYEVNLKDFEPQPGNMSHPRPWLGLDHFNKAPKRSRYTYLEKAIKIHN
UniProt O75530: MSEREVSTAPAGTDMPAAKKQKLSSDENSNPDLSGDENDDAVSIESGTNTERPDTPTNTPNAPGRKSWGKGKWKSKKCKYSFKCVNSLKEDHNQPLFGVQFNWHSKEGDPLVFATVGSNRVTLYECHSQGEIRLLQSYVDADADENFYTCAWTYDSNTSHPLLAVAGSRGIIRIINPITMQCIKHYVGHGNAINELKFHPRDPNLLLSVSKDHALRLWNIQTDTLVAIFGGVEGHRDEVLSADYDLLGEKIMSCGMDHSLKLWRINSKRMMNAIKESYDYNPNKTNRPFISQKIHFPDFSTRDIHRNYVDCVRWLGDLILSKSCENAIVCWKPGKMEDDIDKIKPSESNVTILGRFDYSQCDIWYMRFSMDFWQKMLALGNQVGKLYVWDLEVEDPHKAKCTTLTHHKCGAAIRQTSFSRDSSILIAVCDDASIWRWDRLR
UniProt P45973: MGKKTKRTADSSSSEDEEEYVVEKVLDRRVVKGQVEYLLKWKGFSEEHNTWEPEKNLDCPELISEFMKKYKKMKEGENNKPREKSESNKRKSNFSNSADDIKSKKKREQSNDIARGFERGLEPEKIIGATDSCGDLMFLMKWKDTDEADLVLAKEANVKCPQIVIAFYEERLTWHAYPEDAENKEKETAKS
UniProt Q8IZL8: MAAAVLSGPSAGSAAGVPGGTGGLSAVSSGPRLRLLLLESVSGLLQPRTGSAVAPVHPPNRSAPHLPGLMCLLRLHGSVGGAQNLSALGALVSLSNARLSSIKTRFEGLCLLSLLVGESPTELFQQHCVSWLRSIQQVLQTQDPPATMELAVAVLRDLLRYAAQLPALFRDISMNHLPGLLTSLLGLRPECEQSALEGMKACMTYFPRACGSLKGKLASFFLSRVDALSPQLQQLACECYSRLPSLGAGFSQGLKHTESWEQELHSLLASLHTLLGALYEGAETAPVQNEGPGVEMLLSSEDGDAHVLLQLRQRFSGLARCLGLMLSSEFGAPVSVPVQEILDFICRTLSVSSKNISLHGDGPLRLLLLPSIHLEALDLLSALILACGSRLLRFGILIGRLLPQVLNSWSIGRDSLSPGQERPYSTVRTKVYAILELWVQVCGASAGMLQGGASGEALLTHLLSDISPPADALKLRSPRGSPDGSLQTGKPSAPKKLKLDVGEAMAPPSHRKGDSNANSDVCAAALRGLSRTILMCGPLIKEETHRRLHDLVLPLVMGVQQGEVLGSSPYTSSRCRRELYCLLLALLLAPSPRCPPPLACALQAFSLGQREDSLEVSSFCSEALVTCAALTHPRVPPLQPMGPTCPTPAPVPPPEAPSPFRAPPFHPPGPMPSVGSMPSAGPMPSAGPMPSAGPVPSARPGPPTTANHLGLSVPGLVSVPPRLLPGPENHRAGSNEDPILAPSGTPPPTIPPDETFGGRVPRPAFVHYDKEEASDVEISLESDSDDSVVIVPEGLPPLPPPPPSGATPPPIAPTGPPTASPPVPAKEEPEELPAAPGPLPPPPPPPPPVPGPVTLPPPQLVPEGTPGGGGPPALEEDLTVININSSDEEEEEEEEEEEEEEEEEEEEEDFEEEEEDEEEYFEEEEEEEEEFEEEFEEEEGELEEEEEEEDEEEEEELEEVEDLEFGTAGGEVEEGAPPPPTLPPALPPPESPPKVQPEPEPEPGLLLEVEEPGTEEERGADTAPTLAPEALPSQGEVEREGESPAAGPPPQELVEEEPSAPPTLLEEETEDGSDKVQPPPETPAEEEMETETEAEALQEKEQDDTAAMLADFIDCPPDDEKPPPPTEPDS
UniProt Q09028: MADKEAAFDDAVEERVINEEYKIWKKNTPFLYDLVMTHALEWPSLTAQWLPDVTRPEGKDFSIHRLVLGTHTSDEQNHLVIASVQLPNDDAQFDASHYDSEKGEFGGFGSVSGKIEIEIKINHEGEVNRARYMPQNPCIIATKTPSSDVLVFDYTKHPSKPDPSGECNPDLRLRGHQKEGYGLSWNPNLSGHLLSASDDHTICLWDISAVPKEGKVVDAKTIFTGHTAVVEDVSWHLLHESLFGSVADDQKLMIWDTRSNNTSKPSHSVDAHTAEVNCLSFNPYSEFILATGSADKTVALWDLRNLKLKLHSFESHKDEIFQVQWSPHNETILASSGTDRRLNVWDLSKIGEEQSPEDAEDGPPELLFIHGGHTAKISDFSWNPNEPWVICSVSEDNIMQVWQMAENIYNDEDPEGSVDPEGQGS
UniProt Q99496: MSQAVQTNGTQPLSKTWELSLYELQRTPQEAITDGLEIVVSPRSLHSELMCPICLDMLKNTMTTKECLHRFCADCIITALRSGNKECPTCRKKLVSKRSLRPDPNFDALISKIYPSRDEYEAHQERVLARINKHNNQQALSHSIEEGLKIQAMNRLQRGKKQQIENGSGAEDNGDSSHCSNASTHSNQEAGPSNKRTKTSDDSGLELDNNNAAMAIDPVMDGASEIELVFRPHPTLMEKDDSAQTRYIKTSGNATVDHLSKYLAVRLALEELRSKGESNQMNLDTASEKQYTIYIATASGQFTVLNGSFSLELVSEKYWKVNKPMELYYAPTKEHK
UniProt Q15022: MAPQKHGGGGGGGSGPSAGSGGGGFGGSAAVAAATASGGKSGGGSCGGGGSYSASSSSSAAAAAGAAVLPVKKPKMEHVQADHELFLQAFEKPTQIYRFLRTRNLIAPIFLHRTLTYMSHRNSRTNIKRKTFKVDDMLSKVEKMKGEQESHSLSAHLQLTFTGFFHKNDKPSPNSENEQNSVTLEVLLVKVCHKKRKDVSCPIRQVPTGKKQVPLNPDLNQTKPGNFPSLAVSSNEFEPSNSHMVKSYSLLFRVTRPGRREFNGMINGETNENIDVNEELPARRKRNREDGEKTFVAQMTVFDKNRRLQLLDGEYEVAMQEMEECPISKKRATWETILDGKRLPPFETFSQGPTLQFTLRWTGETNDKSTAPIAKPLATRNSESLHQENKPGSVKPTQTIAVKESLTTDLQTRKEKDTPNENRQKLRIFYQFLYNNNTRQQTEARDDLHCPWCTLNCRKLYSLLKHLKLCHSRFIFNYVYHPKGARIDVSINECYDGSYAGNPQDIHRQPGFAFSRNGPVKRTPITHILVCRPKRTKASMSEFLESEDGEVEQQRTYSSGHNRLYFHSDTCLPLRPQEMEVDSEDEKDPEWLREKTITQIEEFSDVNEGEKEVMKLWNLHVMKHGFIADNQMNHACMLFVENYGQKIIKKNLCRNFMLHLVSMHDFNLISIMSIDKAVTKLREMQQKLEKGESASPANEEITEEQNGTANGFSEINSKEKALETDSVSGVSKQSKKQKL

[2] = molecular target: T2, 3×Flag–WDR18 (human (endogenous in HEK 293FT)) (UniProt Q9BV38); assay: as above
T2 sequence: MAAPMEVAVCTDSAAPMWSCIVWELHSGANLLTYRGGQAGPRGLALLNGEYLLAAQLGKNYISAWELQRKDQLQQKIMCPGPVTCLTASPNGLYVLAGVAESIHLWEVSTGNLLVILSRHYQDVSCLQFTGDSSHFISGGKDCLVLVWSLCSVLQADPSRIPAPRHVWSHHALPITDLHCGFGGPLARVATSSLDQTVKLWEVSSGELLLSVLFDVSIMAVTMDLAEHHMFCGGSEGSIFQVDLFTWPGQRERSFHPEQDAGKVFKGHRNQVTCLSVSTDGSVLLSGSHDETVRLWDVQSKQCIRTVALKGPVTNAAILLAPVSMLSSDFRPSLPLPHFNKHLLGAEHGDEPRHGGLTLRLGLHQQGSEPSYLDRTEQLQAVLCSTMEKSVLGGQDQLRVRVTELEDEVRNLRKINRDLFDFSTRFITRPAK

[3] = molecular target: T3, Flag–CBX4 (human (endogenous in HEK 293FT)) (UniProt O00257); assay: affinity purification with mass spectrometry; Flag immunoprecipitation from endogenously tagged HEK 293FT cells, on-bead trypsin digest, label-free mass spectrometry against untagged cells, two independent experiments
T3 sequence: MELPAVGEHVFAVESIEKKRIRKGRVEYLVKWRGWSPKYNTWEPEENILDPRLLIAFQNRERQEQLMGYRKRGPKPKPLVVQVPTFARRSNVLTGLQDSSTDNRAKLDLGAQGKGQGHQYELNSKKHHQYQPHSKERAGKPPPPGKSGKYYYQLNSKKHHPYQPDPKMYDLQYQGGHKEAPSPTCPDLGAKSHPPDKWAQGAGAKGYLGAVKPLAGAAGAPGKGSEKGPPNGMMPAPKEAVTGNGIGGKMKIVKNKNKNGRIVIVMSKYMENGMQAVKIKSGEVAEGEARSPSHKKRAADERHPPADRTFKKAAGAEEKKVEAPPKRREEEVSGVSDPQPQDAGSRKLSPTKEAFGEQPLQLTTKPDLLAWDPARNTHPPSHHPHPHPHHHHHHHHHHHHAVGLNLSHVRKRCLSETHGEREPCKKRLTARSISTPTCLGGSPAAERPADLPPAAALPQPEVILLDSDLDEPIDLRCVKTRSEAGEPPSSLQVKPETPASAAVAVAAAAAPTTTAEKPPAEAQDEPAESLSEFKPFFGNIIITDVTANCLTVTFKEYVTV

[4] = molecular target: T4, PHC2–Flag (human (endogenous in HEK 293FT)) (UniProt Q8IXK0); assay: as above
T4 sequence: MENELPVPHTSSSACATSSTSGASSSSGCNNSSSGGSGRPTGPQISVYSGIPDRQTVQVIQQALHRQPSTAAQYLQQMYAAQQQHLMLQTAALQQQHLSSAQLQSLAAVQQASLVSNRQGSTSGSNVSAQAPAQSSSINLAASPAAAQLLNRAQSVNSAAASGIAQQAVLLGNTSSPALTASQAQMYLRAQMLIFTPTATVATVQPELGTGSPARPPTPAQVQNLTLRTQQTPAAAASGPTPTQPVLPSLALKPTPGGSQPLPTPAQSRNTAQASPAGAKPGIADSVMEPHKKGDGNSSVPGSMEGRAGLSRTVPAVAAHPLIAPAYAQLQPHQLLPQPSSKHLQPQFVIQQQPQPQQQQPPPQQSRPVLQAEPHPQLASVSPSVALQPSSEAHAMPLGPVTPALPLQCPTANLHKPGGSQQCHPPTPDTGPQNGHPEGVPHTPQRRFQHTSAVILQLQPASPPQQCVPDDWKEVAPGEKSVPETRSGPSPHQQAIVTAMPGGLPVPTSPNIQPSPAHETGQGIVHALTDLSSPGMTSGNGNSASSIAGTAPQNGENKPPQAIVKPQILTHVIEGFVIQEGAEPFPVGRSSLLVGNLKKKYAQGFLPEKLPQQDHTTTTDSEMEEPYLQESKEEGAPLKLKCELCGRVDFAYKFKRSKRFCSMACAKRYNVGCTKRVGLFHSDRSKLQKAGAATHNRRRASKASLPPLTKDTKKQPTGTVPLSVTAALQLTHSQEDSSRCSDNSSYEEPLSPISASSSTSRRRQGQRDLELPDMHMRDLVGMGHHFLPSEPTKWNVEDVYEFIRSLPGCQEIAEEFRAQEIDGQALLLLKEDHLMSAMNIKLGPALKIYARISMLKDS

binding [1]: no binding
binding [2]: no binding
Molecule: HP1β (from UniProt P83916 1-185)

binding [1]: no binding
binding [2]: no binding
Molecule: HP1γ (from UniProt Q13185 1-183)

binding [1]: binds
Molecule: L3MBTL2 (from UniProt Q969R5 1-705)

binding [1]: binds
Molecule: SENP3 (from UniProt Q9H4L4 1-574)

binding [1]: binds
binding [2]: binds
Molecule: USP7 (from UniProt Q93009 1-1102)

binding [3]: binds
binding [1]: binds
B2: WDR18 (protein, UniProt Q9BV38 1-432)
chain: T2 sequence

binding [1]: binds
B3: TEX10 (protein, UniProt Q9NXF1 1-929)
chain: MTKKRKRQHDFQKVKLKVGKKKPKLQNATPTNFKTKTIHLPEQLKEDGTLPTNNRKLNIKDLLSQMHHYNAGVKQSALLGLKDLLSQYPFIIDAHLSNILSEVTAVFTDKDANVRLAAVQLLQFLAPKIRAEQISPFFPLVSAHLSSAMTHITEGIQEDSLKVLDILLEQYPALITGRSSILLKNFVELISHQQLSKGLINRDRSQSWILSVNPNRRLTSQQWRLKVLVRLSKFLQALADGSSRLRESEGLQEQKENPHATSNSIFINWKEHANDQQHIQVYENGGSQPNVSSQFRLRYLVGGLSGVDEGLSSTENLKGFIEIIIPLLIECWVEAVPPQLATPVGNGIEREPLQVMQQVLNIISLLWKLSKQQDETHKLESWLRKNYLIDFKHHFMSRFPYVLKEITKHKRKEPNKSIKHCTVLSNNIDHLLLNLTLSDIMVSLANASTLQKDCSWIEMIRKFVTETLEDGSRLNSKQLNRLLGVSWRLMQIQPNREDTETLIKAVYTLYQQRGLILPVRTLLLKFFSKIYQTEELRSCRFRYRSKVLSRWLAGLPLQLAHLGSRNPELSTQLIDIIHTAAARANKELLKSLQATALRIYDPQEGAVVVLPADSQQRLVQLVYFLPSLPADLLSRLSRCCIMGRLSSSLAAMLIGILHMRSSFSGWKYSAKDWLMSDVDYFSFLFSTLTGFSKEELTWLQSLRGVPHVIQTQLSPVLLYLTDLDQFLHHWDVTEAVFHSLLVIPARSQNFDILQSAISKHLVGLTVIPDSTAGCVFGVICKLLDHTCVVSETLLPFLASCCYSLLYFLLTIEKGEAEHLRKRDKLWGVCVSILALLPRVLRLMLQSLRVNRVGPEELPVVGQLLRLLLQHAPLRTHMLTNAILVQQIIKNITTLKSGSVQEQWLTDLHYCFNVYITGHPQGPSALATVY

More lines, now with the values behind:

Molecule: EED (from UniProt O75530 1-441)
binding [1]: binds

Molecule: HP1α (from UniProt P45973 1-191)
binding [1]: no binding
binding [2]: no binding

Molecule: MDN1 (from UniProt Q9NU22 1-5596)
binding [3]: binds
binding [4]: binds
binding [1]: binds

Molecule: PELP1 (from UniProt Q8IZL8 1-1130)
binding [3]: binds
binding [4]: binds
binding [1]: binds

Molecule: RBBP4 (from UniProt Q09028 1-425)
binding [2]: binds

Molecule: RING1B (from UniProt Q99496 1-336)
binding [1]: binds
binding [2]: binds

Molecule: SUZ12 (from UniProt Q15022 1-739)
binding [1]: binds

B1: RYBP (protein, UniProt Q8N488 1-228)
chain: MTMGDKKSPTRPKRQAKPAADEGFWDCSVCTFRNSAEAFKCSICDVRKGTSTRKPRINSQLVAQQVAQQYATPPPPKKEKKEKVEKQDKEKPEKDKEISPSVTKKNTNKKTKPKSDILKDPPSEANSIQSANATTKTSETNHTSRPRLKNVDRSTAQQLAVTVGNVTVIITDFKEKTRSSSTSSSTVTSSAGSEQQNQSSSGSESTDKGSSRSSTPKGDMSAVNDESF
binding [2]: binds

From PMC8986528
